No end group written: not given here.
Assay: general procedure: Boc solid-phase peptide synthesis; p-methyl BHA resin; HOBt/DCC
Conditions: whole synthesis, scale 0.23 g resin

With SAGATANLPRS-NH2 the isolated mass was 71 mg.

From patent publication US7217808B2 (Takeda Pharmaceutical Company, Ltd., priority 2001, dated 2007)
